According to publication PMC7819943, “Rice protein-binding microarrays: a tool to detect cis-acting elements near promoter regions in rice”:
This is one part of the list.

Sequences of proteins named here, by UniProt entry; tags and fusion partners are left off.
UniProt Q0JBA9, entry or part of it: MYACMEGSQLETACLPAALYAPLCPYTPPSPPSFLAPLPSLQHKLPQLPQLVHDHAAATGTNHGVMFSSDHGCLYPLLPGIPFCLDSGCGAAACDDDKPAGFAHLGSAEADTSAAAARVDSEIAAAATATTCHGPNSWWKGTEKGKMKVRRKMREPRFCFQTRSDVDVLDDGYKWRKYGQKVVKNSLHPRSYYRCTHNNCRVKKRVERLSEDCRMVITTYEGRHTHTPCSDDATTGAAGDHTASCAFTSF

These sequences were tested against OsWRKY34 (Oryza sativa, UniProt Q0JBA9 1-250) (assay: protein-binding microarray (RPBM); PBS, 2% BSA, 51.3 ng/ul salmon testes DNA, 50 uM zinc acetate, 200 nM TF, 25 C, 1 h; high values mean tight binding). Details: protein: recombinant; tags: N-terminal polyhistidine and DsRed monomer fusion (pET32a); label: CyDye5-dUTP incorporated in the synthesized complementary strand; 3' TTTTT single-stranded linker to array surface; dsDNA, one strand shown.
Summary of the method: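 Transcription factors, each fused N-terminally to a polyhistidine tag and DsRed, were expressed in E. coli BL21-CodonPlus and purified on Ni–NTA. A custom Agilent array was made double-stranded by primer extension with Cy5-dUTP and blocked with 2% BSA. It was incubated with 200 nM protein in PBS, 2% BSA, salmon testes DNA and 50 µM zinc acetate at 25 °C for 1 h, then washed. The binding signal is per-feature fluorescence intensity (arbitrary units) read on an Axon 4000B scanner.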
In the case of “AGCGACGTATCTCCCACCAATTCTTTTTTCTTAAGTAGTACGGAGTCACCTAGTGCAG”, the binding signal is reported as 8560 fluorescence intensity (a.u.). “CCCAACGACCAAATGCATGACCCGTTCTAATTCAGTTTCTCGGAGTCACCTAGTGCAG” was tested, and the binding signal was 8550 fluorescence intensity (a.u.). In the case of “ATTTTTTTTCTACCACATTCTGTCAGTGAGCTGGTTTACACGGAGTCACCTAGTGCAG”, the binding signal is reported as 11100 fluorescence intensity (a.u.). For “AGGGTTTAGAGAGGTGTTGATTACTAGGGTTTAGAGAGGGCGGAGTCACCTAGTGCAG”, the binding signal was 8630 fluorescence intensity (a.u.). For “GTGGGCCCCGCCCGTGTGATCGTGTCTCTGTTTCGTTTTCCGGAGTCACCTAGTGCAG”, the binding signal was 12100 fluorescence intensity (a.u.). “CCGCCTCCGCCGACCCCGATCCCCATCCATCCCGCCAGCGCGGAGTCACCTAGTGCAG” was tested, and the binding signal was 9340 fluorescence intensity (a.u.). In the case of “ACATGGCTGAACCTGCACTACTACTGTTAACAGTGTTATTCGGAGTCACCTAGTGCAG”, the binding signal is reported as 10300 fluorescence intensity (a.u.). “ATTGGATGTTAAGTTGTGTTTTTGCTGTTTCATGGTTTTACGGAGTCACCTAGTGCAG” was tested, and the binding signal was 11400 fluorescence intensity (a.u.). In the case of “TCGAGCGCGCTCATTTCCCTTTTCCTTTTTCGTTTTTTCGCGGAGTCACCTAGTGCAG”, the binding signal is reported as 10500 fluorescence intensity (a.u.). In the case of “TGAACACACGCACGCAAACCCTACCTCCATGAGTATCTTCCGGAGTCACCTAGTGCAG”, the binding signal is reported as 10500 fluorescence intensity (a.u.). “CCCGCCGCTGCCACCACACGCGCCCGCCGACCCGATGCCGCGGAGTCACCTAGTGCAG” was tested, and the binding signal was 8990 fluorescence intensity (a.u.). In the case of “CCCCATTCACTTCCACAGACAAGTAGCATCACCTTTCAGTCGGAGTCACCTAGTGCAG”, the binding signal is reported as 8710 fluorescence intensity (a.u.). “ACTACATGCAGACCTACTCCATCGTCCTCGGCCGCCACAGCGGAGTCACCTAGTGCAG” was tested, and the binding signal was 9580 fluorescence intensity (a.u.). For “TACTATGAAATATTTCATCTGGTCTCAGGTTGTCACTTTTCGGAGTCACCTAGTGCAG”, the binding signal was 9880 fluorescence intensity (a.u.). “AATTTGTCCATTCCCTATGTCATCTCCTATAGAAACTCTACGGAGTCACCTAGTGCAG” was tested, and the binding signal was 11300 fluorescence intensity (a.u.). With “TGTGTGTGTGCCGTACTGTTGAAGTCTGGCCGTTTCGCTGCGGAGTCACCTAGTGCAG” the binding signal was 9210 fluorescence intensity (a.u.). In the case of “CTCGTTCTTTTCCGGTTCCTTCTTTTCCCCGACGCAGCGGCGGAGTCACCTAGTGCAG”, the binding signal is reported as 8480 fluorescence intensity (a.u.). “AAAAAGTCAACGGCGTTATACATTAAAATACGGAGGGAGTCGGAGTCACCTAGTGCAG” was tested, and the binding signal was 8640 fluorescence intensity (a.u.). In the case of “CTTCATCTCCAGCCTCTCTCTCTGCTTTGCTTGCTTATATCGGAGTCACCTAGTGCAG”, the binding signal is reported as 9080 fluorescence intensity (a.u.). In the case of “CAACCCCTGTACCGTGCGCACCGTCTTGTATGTAGCGCACCGGAGTCACCTAGTGCAG”, the binding signal is reported as 9210 fluorescence intensity (a.u.). In the case of “GGCAATACCGTTTTCCATGTTCGCAGCCTGCGTTCGGTGCCGGAGTCACCTAGTGCAG”, the binding signal is reported as 9160 fluorescence intensity (a.u.). With “GCCATGTAGGCGTCACGTCAGCTAAAACCGTCGTCCAAACCGGAGTCACCTAGTGCAG” the binding signal was 9270 fluorescence intensity (a.u.). “CTGTCTTAAGTTGTTTAGTAGCTTCGATTCTGCCTTTAAACGGAGTCACCTAGTGCAG” was tested, and the binding signal was 8340 fluorescence intensity (a.u.). For “GTGTCGCCTCGATCCCCTTCGAAACGGCTGAGCCCAAAGCCGGAGTCACCTAGTGCAG”, the binding signal was 8290 fluorescence intensity (a.u.). In the case of “TGATTGGTTGGCTGGTTGGTTAGTTGGCGCTTTTATCGTGCGGAGTCACCTAGTGCAG”, the binding signal is reported as 15200 fluorescence intensity (a.u.). For “ATTTTTCTGTCTGACCGAACGTCCACCCCTAGCCACTGTTCGGAGTCACCTAGTGCAG”, the binding signal was 10500 fluorescence intensity (a.u.). For “CCCCGGAAGGGGCGGGGAGGGGAGGGCGGCAGCGGCGCCGCGGAGTCACCTAGTGCAG”, the binding signal was 18500 fluorescence intensity (a.u.). “AATGCGATCCGACGCGCGCCACCACCACCTCCTCCTCCGACGGAGTCACCTAGTGCAG” was tested, and the binding signal was 8070 fluorescence intensity (a.u.). For “TGCCGATTGATCTTTTATCCTTTGGGGCATATGCTCGAGTCGGAGTCACCTAGTGCAG”, the binding signal was 8360 fluorescence intensity (a.u.). For “CCTCATTTCCTTGTTGCAGTCAGTCTTGGCCCTCAAATCACGGAGTCACCTAGTGCAG”, the binding signal was 12800 fluorescence intensity (a.u.). In the case of “TGATACCGTTGACTTTTCACATAACTTGGTCGTTCGTTTTCGGAGTCACCTAGTGCAG”, the binding signal is reported as 34100 fluorescence intensity (a.u.). With “ACCCGCCCACCGGCCTGGCCACACACCGCCGCCACGCTGGCGGAGTCACCTAGTGCAG” the binding signal was 9290 fluorescence intensity (a.u.). In the case of “GAGAGTGTTTGTATTTCTGTTTTCAGGTCCAAGGTAGCGACGGAGTCACCTAGTGCAG”, the binding signal is reported as 11500 fluorescence intensity (a.u.). For “ACCTTTCATTCTCAGGTTATAATTATATTATCATTTCTTTCGGAGTCACCTAGTGCAG”, the binding signal was 10300 fluorescence intensity (a.u.). For “GTCAGTTTGTCCGCCCGCCGCCGCCGCCGCCGCCGCCGTCCGGAGTCACCTAGTGCAG”, the binding signal was 9620 fluorescence intensity (a.u.). With “TCTTCGTGAGCATCCTTGTACCATTTGACTCTATAAAAAACGGAGTCACCTAGTGCAG” the binding signal was 9830 fluorescence intensity (a.u.). “AACTTTTCCAACTTTACTCTCTCGCGCTAACACTTTTTAACGGAGTCACCTAGTGCAG” was tested, and the binding signal was 10500 fluorescence intensity (a.u.). With “CGAACGCGCCACTGCTTAGCTTACTCCCGCCTCACTATCTCGGAGTCACCTAGTGCAG” the binding signal was 9750 fluorescence intensity (a.u.). With “ATTTGCACCATTTGCACGTCTGCTGTGAAGAATCTGCCATCGGAGTCACCTAGTGCAG” the binding signal was 8880 fluorescence intensity (a.u.). For “ATTCCAAGCAGGTGGACCCGCGTGTCATCCCCACTCTACACGGAGTCACCTAGTGCAG”, the binding signal was 8110 fluorescence intensity (a.u.). “ACCGTCTGCGTCTGCATCCCGGCGGCCATGCCCTTCGCCGCGGAGTCACCTAGTGCAG” was tested, and the binding signal was 8240 fluorescence intensity (a.u.). With “TCGAAGATGTCGTTATTGCGTTCTTTTCTGCTATTCCATACGGAGTCACCTAGTGCAG” the binding signal was 8430 fluorescence intensity (a.u.).
